Experimental findings from publication PMC11148184 are described below.

Chains of the proteins cited; added tags and fusions are not shown.
UniProt Q6P3S6: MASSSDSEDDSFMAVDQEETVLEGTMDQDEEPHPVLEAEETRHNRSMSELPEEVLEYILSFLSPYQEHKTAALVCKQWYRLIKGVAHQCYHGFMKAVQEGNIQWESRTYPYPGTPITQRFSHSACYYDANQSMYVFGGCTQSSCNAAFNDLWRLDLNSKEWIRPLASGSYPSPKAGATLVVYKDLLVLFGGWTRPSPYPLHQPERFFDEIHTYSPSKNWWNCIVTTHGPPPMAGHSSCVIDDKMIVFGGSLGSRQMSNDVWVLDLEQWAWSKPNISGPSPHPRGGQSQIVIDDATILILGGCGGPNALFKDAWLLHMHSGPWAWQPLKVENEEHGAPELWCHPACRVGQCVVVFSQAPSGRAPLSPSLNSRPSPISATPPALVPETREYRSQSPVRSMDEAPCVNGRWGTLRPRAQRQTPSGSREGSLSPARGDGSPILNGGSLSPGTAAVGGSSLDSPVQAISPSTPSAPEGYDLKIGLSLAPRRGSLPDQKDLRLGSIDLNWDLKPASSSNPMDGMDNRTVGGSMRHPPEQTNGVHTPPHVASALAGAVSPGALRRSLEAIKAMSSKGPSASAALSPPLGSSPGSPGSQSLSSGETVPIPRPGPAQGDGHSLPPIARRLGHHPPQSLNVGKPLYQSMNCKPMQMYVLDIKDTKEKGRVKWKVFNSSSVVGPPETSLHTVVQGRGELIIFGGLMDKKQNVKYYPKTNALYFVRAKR

This assay addresses BirA*-tagged FBXO42 (F-Box Protein 42), full-length human (human) (UniProt Q6P3S6). Briefly: proximity labelling; BioID: BirA*-tagged bait induced in HEK293 Flp-In T-REx cells, 50 uM biotin for 24 h, with or without 5 uM MG132; streptavidin-Sepharose purification and mass spectrometry.

No constants are given. Whether binding was seen depends on the method and setting. Binding seen in cells or lysates may run through a third protein. A yes stands for co-enrichment or nearness to the bait. Other partners may have been found.

B1: CCDC6 (prey in HEK293 BioID) (protein, UniProt Q16204 1-474)
chain: MADSASESDTDGAGGNSSSSAAMQSSCSSTSGGGGGGGGGGGGGKSGGIVISPFRLEELTNRLASLQQENKVLKIELETYKLKCKALQEENRDLRKASVTIQARAEQEEEFISNTLFKKIQALQKEKETLAVNYEKEEEFLTNELSRKLMQLQHEKAELEQHLEQEQEFQVNKLMKKIKKLENDTISKQLTLEQLRREKIDLENTLEQEQEALVNRLWKRMDKLEAEKRILQEKLDQPVSAPPSPRDISMEIDSPENMMRHIRFLKNEVERLKKQLRAAQLQHSEKMAQYLEEERHMREENLRLQRKLQREMERREALCRQLSESESSLEMDDERYFNEMSAQGLRPRTVSSPIPYTPSPSSSRPISPGLSYASHTVGFTPPTSLTRAGMSYYNSPGLHVQHMGTSHGITRPSPRRSNSPDKFKRPTPPPSPNTQTPVQPPPPPPPPPMQPTVPSAATSQPTPSQHSAHPSSQP
On to B1, for which the binding entry was “binds”.
